Source: PubChem BioAssay AID1487 (National Center for Advancing Translational Sciences (NCATS), 2009)
Where “and” joins values, the source holds several entries; their conditions need not be identical. Equal entries are not always repeated. The list shows a part of the results. Further columns of the screen follow, without active or inactive calls. The list favours compounds with an active or inconclusive main result. Potencies come from curve fits of mixed quality, noted in brackets.

Test: qHTS Assay for Modulators of Lamin A Splicing
Settings: HeLa LMNA splicing GFP/RFP minigene ratio, 48 h
Method in brief: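 S3 HeLa stable clones carrying a lamin A-EGFP splicing minigene plus DsRed2 were seeded at 600 cells/well in Opti-MEM with 2% FBS, pin-dosed and incubated 48 h at 37°C. Acumen cytometry (488 nm) gave the GFP/RFP total-intensity ratio.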

[1] = measured here: GFP splicing reporter channel
[2] = measured here: RFP viability control channel

Row | Compound | AC50 [1] | AC50 [2]
1 | COc1ccc(C(=O)CSc2nnc(CN3CCCCC3)n2-c2ccc(Cl)cc2)cc1OC | 15.8 µM [rising, single point] | 10 µM [rising, partial curve]
2 | CCOc1cccc2sc(N(Cc3cccnc3)C(C)=O)nc12 |  | 0.0891 µM [rising, full curve]
3 | O=C(Nc1ccccc1SCC1CSc2nc3ccccc3c(=O)n21)c1ccccc1 (stereo unspecified) |  | 10 µM [rising, partial curve, poor fit]
4 | O=C(Nc1ccc(F)c(Cl)c1)c1cc(S(=O)(=O)NCc2ccc3c(c2)OCO3)ccc1F | 35.5 µM [falling, single point] | 28.2 µM [falling, single point]
5 | CC(C)CC(O)(CC(C)C)C(=O)NNc1ccccc1 | 22.4 µM [rising, single point] | 
6 | Cc1sc2nc(C3CC3)nc(NCCNS(C)(=O)=O)c2c1C |  | 11.2 µM [rising, single point]
7 | C[n+]1cccc(C(=O)NNC(=O)C23CC4CC(CC(C4)C2)C3)c1 |  | 0.398 µM [falling, full curve]
8 | Cc1ccc(NC(=O)N2CCN(C(=O)c3nsc4ccccc34)CC2)cc1C | 0.794 µM [rising, full curve] | 1.58 µM [rising, partial curve]
9 | CCOC(=O)Cc1nn(CC)c(=O)c2ccccc12 | 1.41 µM [falling, single point] | 
10 | Cc1sc2ncnc(N/N=C/c3ccc(O)cc3)c2c1C |  | 0.0631 µM [rising, full curve]
11 | C[C@]12CCC(=O)C=C1CC[C@@H]1[C@@H]2CC[C@@]2(C)[C@H]1CC[C@]2(O)C(=O)CO | 0.00501 µM [falling, full curve, poor fit] | 5.01 nM [falling, full curve, poor fit] and 6.31 µM [falling, single point]
12 | Nc1c(C(=O)NCCc2ccc(Cl)cc2)sc2ccc(S(=O)(=O)N3CCCCC3)cc12 |  | 12.6 µM [rising, single point]
13 | COc1ccc(COc2ccc(C3C(S(=O)(=O)c4ccccc4)CON3C)cc2OC)cc1 (stereo unspecified) |  | 1.12 µM [falling, partial curve, poor fit]
14 | CCN(CC)S(=O)(=O)c1cccc(-c2nnc(SCC(=O)c3ccc(Cl)s3)n2C)c1 | 14.1 µM [rising, single point] | 
15 | Oc1ccccc1CNc1cnc2ccccc2c1 |  | 35.5 µM [rising, single point]
16 | COC(=O)c1cccc(NC(=O)CN(c2ccc3c(c2)OCO3)S(C)(=O)=O)c1C | 0.00501 µM [rising, full curve, poor fit] | 0.00447 µM [rising, full curve, poor fit]
17 | COC(=O)C(=C/C=C/c1cccnc1)C(=O)OC | 6.31 µM [rising, partial curve] | 1.78 µM [rising, partial curve, poor fit]
18 | O=C(c1cc(-c2cccs2)nc2ccccc12)N1CCN(c2ccccc2O)CC1 |  | 11.2 µM [rising, single point]

Row | Compound | AC50 [1] | AC50 [2]
19 | Cc1ccc(-c2nc3ccccc3s2)cc1NC(=S)NC(=O)/C=C/c1ccco1 | 10 µM [falling, partial curve] | 11.2 µM [falling, partial curve]
20 | CCn1c(C(=O)N2CCC(C(=O)NCc3ccc4c(c3)OCO4)CC2)cc2sccc21 |  | 35.5 µM [rising, single point]
21 | Cc1cccn2c(=O)cc(COc3ccc(NC(=O)COc4ccc(F)cc4)cc3)nc12 | 11.2 µM [falling, partial curve] | 35.5 µM [falling, single point]
22 | CCOc1ccccc1NC(=O)N1CC(C)Oc2ccc(Cl)cc21 (stereo unspecified) | 1.12 µM [rising, partial curve] | 
23 | O=C(NC(=S)Nc1ccc(Cc2ccncc2)cc1)c1ccccc1 |  | 35.5 µM [rising, single point]
24 | CCOC(=O)C1=C(CN(CC)Cc2ccccc2)NC(=O)NC1c1ccc(OC)cc1 (stereo unspecified) | 0.02 µM [falling, full curve, poor fit] | 
25 | Nc1cc(N2CCOCC2)c(Cl)cc1[N+](=O)[O-] | 35.5 µM [rising, single point] | 
26 | CCS(=O)(=O)c1ccc2oc(Nc3cc(C)cc(C)c3)nc2c1 | 12.6 µM [rising, single point] | 
27 | Cc1c(C(=O)N2CCC(C)CC2)oc2ccc(S(=O)(=O)N3CCC4(CC3)OCCO4)cc12 |  | 22.4 µM [rising, single point]
28 | Nc1nc2c(ncn2C2OC(COC(=O)c3ccccc3)C(OC(=O)c3ccccc3)C2OC(=O)c2ccccc2)c(=O)[nH]1 (stereo unspecified) | 8.91 µM [falling, partial curve] | 3.55 µM [rising, partial curve]
29 | COC(=O)c1cccc(NC(=O)CSc2nnc(COc3ccc(C#N)cc3)n2-c2ccccc2)c1 |  | 28.2 µM [rising, partial curve]
30 | COc1ccc(C2NCCC3(O)CCCCC23)c(OC)c1OC (stereo unspecified) | 0.282 µM [falling, full curve] | 0.447 µM [falling, full curve, poor fit]
31 | CCCCCCCC1=CC2=CC(=O)C(C)(OC(C)=O)C(=O)C2=CN1CCc1ccccc1 (stereo unspecified) | 35.5 µM [rising, single point] | 20 µM [rising, partial curve, poor fit]
32 | Cc1ccc(S(=O)(=O)N2CCCCC2C(=O)N2CCN(c3ccccc3F)CC2)cc1 (stereo unspecified) |  | 15.8 µM [rising, single point]
33 | O=C(CSc1nnc(Cc2cccs2)n1Cc1ccco1)Nc1cc(Cl)cc(Cl)c1 |  | 11.2 µM [rising, partial curve]
34 | Cn1c(=O)c2ncn(CC(=O)O)c2n(C)c1=O |  | 8.91 µM [falling, partial curve]
35 | COc1ccc(CCn2ccc(O)c(Cc3ccc(Cl)cc3)c2=O)cc1OC |  | 0.0224 µM [falling, full curve, poor fit]

Quoted from above, compounds 26 to 27
Row | Compound | AC50 [1] | AC50 [2]
26 | CCS(=O)(=O)c1ccc2oc(Nc3cc(C)cc(C)c3)nc2c1 | 12.6 µM [rising, single point] | 
27 | Cc1c(C(=O)N2CCC(C)CC2)oc2ccc(S(=O)(=O)N3CCC4(CC3)OCCO4)cc12 |  | 22.4 µM [rising, single point]
